Measured data: PubChem BioAssay AID1224830 (NIAID, 2016)

Assay: 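Regulators of TLR4 signalling towards TNF-alpha in macrophage-like cells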 (primary screen)
System: human THP-1 monocytic leukaemia cells, TNF dual-luciferase reporter clone, PMA-differentiated to macrophage-like cells
Knock-down reagent: siRNA pool against human genes, 50 nM
Time to read-out: LPS for 4 h, given about 3 days after siRNA transfection
Challenge: bacterial LPS (TLR4 ligand), 10 ng/ml
Detection: 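TNF firefly reporter luminescence divided by renilla, normalised to the plate median, then turned into a robust z-score for each replicate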
Reading the numbers: TNF reporter robust z-score: higher = stronger TNF reporter response to LPS
Hit rule: 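a well is active when its z-score exceeds 2.8 or falls below -1.5; control wells carry no call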
In all, the deposit lists about 18,000 reagents; shown is an unselected part. About 2,900 of all reagents (16%) count as active. 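Calls are made per well; low scores hint the gene aids the LPS response, high scores that it dampens it.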 Repeated entries: four replicate wells of each siRNA pool.

GPR85 (GeneID 54329): TNF reporter robust z-score = -0.67; call = inactive
GPR85 (GeneID 54329): TNF reporter robust z-score = -0.07; call = inactive
GPR85 (GeneID 54329): TNF reporter robust z-score = -0.4; call = inactive
GPR85 (GeneID 54329): TNF reporter robust z-score = -0.66; call = inactive
DGCR8 (GeneID 54487): TNF reporter robust z-score = -0.5; call = inactive
DGCR8 (GeneID 54487): TNF reporter robust z-score = -0.33; call = inactive
DGCR8 (GeneID 54487): TNF reporter robust z-score = 0.16; call = inactive
DGCR8 (GeneID 54487): TNF reporter robust z-score = 0.38; call = inactive
VSIG4 (GeneID 11326): TNF reporter robust z-score = -1.43; call = inactive
VSIG4 (GeneID 11326): TNF reporter robust z-score = -0.61; call = inactive
VSIG4 (GeneID 11326): TNF reporter robust z-score = -0.81; call = inactive
VSIG4 (GeneID 11326): TNF reporter robust z-score = -0.77; call = inactive

Part of the list above in another layout:
GPR85 (GeneID 54329)
- TNF reporter robust z-score: -0.07
- call: inactive

GPR85 (GeneID 54329)
- TNF reporter robust z-score: -0.4
- call: inactive

GPR85 (GeneID 54329)
- TNF reporter robust z-score: -0.66
- call: inactive

DGCR8 (GeneID 54487)
- TNF reporter robust z-score: -0.5
- call: inactive

DGCR8 (GeneID 54487)
- TNF reporter robust z-score: -0.33
- call: inactive

The results go on:
C1RL (GeneID 51279): TNF reporter robust z-score = -0.1; call = inactive
C1RL (GeneID 51279): TNF reporter robust z-score = 1.28; call = inactive
C1RL (GeneID 51279): TNF reporter robust z-score = -0.47; call = inactive
C1RL (GeneID 51279): TNF reporter robust z-score = -0.06; call = inactive
SYCP2L (GeneID 221711): TNF reporter robust z-score = -0.59; call = inactive
SYCP2L (GeneID 221711): TNF reporter robust z-score = -0.02; call = inactive
SYCP2L (GeneID 221711): TNF reporter robust z-score = 0.05; call = inactive
SYCP2L (GeneID 221711): TNF reporter robust z-score = 0.4; call = inactive
TDRD9 (GeneID 122402): TNF reporter robust z-score = -0.49; call = inactive
TDRD9 (GeneID 122402): TNF reporter robust z-score = 0.17; call = inactive
TDRD9 (GeneID 122402): TNF reporter robust z-score = -0.05; call = inactive
TDRD9 (GeneID 122402): TNF reporter robust z-score = -0.04; call = inactive
RNF212 (GeneID 285498): TNF reporter robust z-score = 0.29; call = inactive
RNF212 (GeneID 285498): TNF reporter robust z-score = 0.62; call = inactive
RNF212 (GeneID 285498): TNF reporter robust z-score = 1.67; call = inactive
RNF212 (GeneID 285498): TNF reporter robust z-score = 0.09; call = inactive
MIR1915HG (GeneID 399726): TNF reporter robust z-score = -0.99; call = inactive
MIR1915HG (GeneID 399726): TNF reporter robust z-score = -0.74; call = inactive
MIR1915HG (GeneID 399726): TNF reporter robust z-score = -0.4; call = inactive
MIR1915HG (GeneID 399726): TNF reporter robust z-score = -1.07; call = inactive
